Source: US11358969B2, “Indole AHR inhibitors and uses thereof” (Ikena Oncology, Inc., priority 2017, dated 2022)

Sequences of proteins named here, by UniProt entry; tags and fusion partners are left off.
UniProt P35869, whole entry: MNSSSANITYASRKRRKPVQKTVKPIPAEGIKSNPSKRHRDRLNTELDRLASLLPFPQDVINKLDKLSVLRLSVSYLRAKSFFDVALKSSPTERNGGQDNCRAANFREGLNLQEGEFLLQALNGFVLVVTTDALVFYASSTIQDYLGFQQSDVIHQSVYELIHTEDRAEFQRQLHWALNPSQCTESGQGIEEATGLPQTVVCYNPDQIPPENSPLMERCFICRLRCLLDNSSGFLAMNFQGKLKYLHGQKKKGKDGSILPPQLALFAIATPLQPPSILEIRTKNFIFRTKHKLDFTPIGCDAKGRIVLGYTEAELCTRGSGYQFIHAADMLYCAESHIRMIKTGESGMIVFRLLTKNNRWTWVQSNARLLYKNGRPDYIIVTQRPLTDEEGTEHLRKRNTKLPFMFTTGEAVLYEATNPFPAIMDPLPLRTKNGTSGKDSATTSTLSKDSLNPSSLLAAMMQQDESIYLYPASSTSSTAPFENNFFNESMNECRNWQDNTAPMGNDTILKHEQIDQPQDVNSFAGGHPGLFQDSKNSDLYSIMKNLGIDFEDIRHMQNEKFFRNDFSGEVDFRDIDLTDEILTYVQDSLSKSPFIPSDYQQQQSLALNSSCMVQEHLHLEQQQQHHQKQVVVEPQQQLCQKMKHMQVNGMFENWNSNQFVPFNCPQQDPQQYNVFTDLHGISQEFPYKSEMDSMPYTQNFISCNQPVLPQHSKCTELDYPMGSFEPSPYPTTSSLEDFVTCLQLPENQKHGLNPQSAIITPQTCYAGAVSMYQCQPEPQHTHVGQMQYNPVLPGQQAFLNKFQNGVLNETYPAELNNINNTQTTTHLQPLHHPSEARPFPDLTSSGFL

Columns and labels:
AHR = AHR (UniProt P35869); test: DRE-Luciferase Reporter Assay (Alternate Method) (Example 1B); conditions: cell line and AHR activating ligand not specified
[1] = Mouse Pharmacokinetic Study (Example 1C); conditions: CD-1 mice, po, 30 mg/kg (so in the source); plasma
Description: Formulations of compounds set forth in Table 4 were administered intravenously or orally via gavage to CD-1 mice. Typically, at 0.167, 0.5, 1, 2, 4, 6, 12, and 24 hours post-dose, blood was collected and processed to plasma by centrifugation and stored at −80° C. until analysis.
Internal standard was added to each sample prior to protein precipitation with acetonitrile. The precipitates were filtered through a Phree phospholipid removal filter plate and the samples were analyzed by LC/MS/MS. A standard curve was prepared in plasma from typically from 1.0 ng/mL to 3000 ng/mL and processed in the same manner as the samples. Sample analysis was typically performed on a suitable LC/MS/MS system fitted with an analytical UPLC column and compounds eluted from the analytical column with a gradient from 30-95% 0.1% formic acid (v/v) in ACN: 0.1% formic acid (v/v) in water. Mass spectrometric detection of test compound and the internal standard was performed by MRM in positive mode. The pharmacokinetics of each compound were analyzed by Phoenix WinNonlin software (Pharsight, St. Louis, Mo.) via non-compartmental analysis.

Structure (SMILES) | IC50 (AHR) | Vdss [1] | IC50 (AHR; tested form: HCl)
OCc1cnn2c(NC[C@H](O)c3c[nH]c4ccccc34)cc(-c3cncc(F)c3)nc12 | < 500 nM | 0.8 L/kg | –
Cc1[nH]c2ccc(F)cc2c1CCNc1cc(-c2cncc(F)c2)nc2c(C(C)C)cnn12 | – | – | < 500 nM

The match of structure and compound is tentative.
